Values joined by “and” are separate entries in the source; they are usually repeats but may differ in a detail not shown here. Equal entries are not always repeated. The list shows a part of the results. These are further read-outs of the screen, such as a control signal, another cell line or another target. No call is given for them. The list favours compounds with an active or inconclusive main result. Potencies come from curve fits of mixed quality, noted in brackets.
Test: qHTS Assay for Lipid Storage Modulators in Drosophila S3 Cells;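 on cell number change: cells counted by Cell Tracker Red CMTPX staining in the red channel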
Conditions: BODIPY lipid droplet fluorescence, 18-24 h; for cell number change: measured here: cell count max response, cells fed with added oleic acid
How it was run: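 Laser-scanning cytometry quantifies lipid droplet accumulation (500–530 nm total intensity; droplet/cell object ratio) in oleic acid-fed (400 uM added) Drosophila S3 cells treated with a concentration series. 20 uM Triacsin C defined 100% inhibition.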

[1] = measured here: lipid fluorescence (Fed channel) AC50, cells fed with added oleic acid
[2] = measured here: cell number channel AC50, cells fed with added oleic acid

| SMILES | cell number change | AC50 [1] | AC50 [2] |
| --- | --- | --- | --- |
| CC(C)On1c(SC(C)C)nc2ccccc2c1=O | -25.1% | – | – |
| O=[N+]([O-])c1ccc2c(c1)C(O)n1ncnc1S2 (stereo not given) | -0.704% | – | – |
| O=C(NC1CCCCCC1)c1ccc2c(=O)n3c(nc2c1)CCCCC3 | 12.6% | – | – |
| CC(C)CCNC(=O)c1ccc(Cl)c(NC(=O)c2ccccc2F)c1 | – | 0.461 µM [rising, single point] | – |
| COCc1nnc(NC(=O)c2sc3ccccc3c2Cl)s1 | -13.8% | 29.1 µM [falling, single point] | – |
| CCOC(=O)CN1C(=O)S/C(=C/c2ccco2)C1=O | -8.2% | 1.16 µM [falling, full curve, poor fit] | – |
| NC(=O)CSc1nc2ccccc2n1Cc1ccccc1F | -1.48% | – | – |
| O=C(Nc1ccc2c(c1)OCO2)Nc1ccc(Br)cn1 | -6.15% | – | – |
| CCN(CC)S(=O)(=O)c1ccc(C(=O)NNC(=O)C2CCN(S(=O)(=O)c3ccc(Cl)cc3)CC2)cc1 | 32.6% | – | 16.4 µM [rising, single point] |
| CCCCNC(C(=O)Nc1cccc(S(=O)(=O)N2CCOCC2)c1)c1ccccc1 (stereo not given) | 56.4% | – | – |
| COCc1[nH]nc2c1C(c1cccc(OC)c1)C(C#N)=C(N)O2 (stereo not given) | -22.4% | – | 0.517 µM [falling, full curve] |
| CCc1cc([N+](=O)[O-])cc(CC)c1N | 131% | 14.6 µM [rising, partial curve] | 8.2 µM [rising, partial curve] |
| COc1ccc(NC(=O)CCC(=O)c2cccs2)cc1Cl | 18% | – | – |
| Cc1cc(S(=O)(=O)N2CCOCC2)ccc1OCC(=O)NCCCn1ccnc1 | 17.8% | – | – |
| CCCCOc1ccc(C(=O)N2CCC(C)CC2)cc1 | -24.8% | 4.11 µM [rising, partial curve, poor fit] | – |
| CCCOc1ccc(C(=O)N/N=C/c2ccc(-c3ccc(S(=O)(=O)Nc4ncccn4)cc3)o2)cc1 | -34.7% | – | 20.6 µM [falling, single point] |
| Cc1ccc(NC(=O)CCC(=O)N/N=C/c2cccs2)cc1C | 4.75% | 6.51 µM [rising, single point] | – |
| COc1ccc(-c2cc(C(=O)N(C)CCc3ccc(OC)c(OC)c3)c3ccccc3n2)cc1 | 15.1% | – | – |
| Cc1ccc(S(=O)(=O)N2CCN(C(=O)c3sccc3-c3ccccc3)CC2)cc1 | -5.18% | 23.1 µM [falling, single point] | – |
| O=c1[nH]cnc2c1c(-c1ccccc1)cn2-c1ccc(F)cc1 | 18.7% | 6.51 µM [rising, single point] | – |
| CCOc1ccc(N(CC(=O)NCc2ccc(F)cc2)C(=O)c2ccco2)cc1 | -9.4% | 7.31 µM [falling, partial curve, poor fit] | – |

5 entries out of the list, ordered by molecular weight, high to low.

| SMILES | cell number change | AC50 [1] | AC50 [2] |
| --- | --- | --- | --- |
| CCCCNC(C(=O)Nc1cccc(S(=O)(=O)N2CCOCC2)c1)c1ccccc1 (stereo not given) | 56.4% | – | – |
| Cc1cc(S(=O)(=O)N2CCOCC2)ccc1OCC(=O)NCCCn1ccnc1 | 17.8% | – | – |
| O=C(Nc1ccc2c(c1)OCO2)Nc1ccc(Br)cn1 | -6.15% | – | – |
| COc1ccc(NC(=O)CCC(=O)c2cccs2)cc1Cl | 18% | – | – |
| NC(=O)CSc1nc2ccccc2n1Cc1ccccc1F | -1.48% | – | – |

(continued)

| SMILES | cell number change | AC50 [1] | AC50 [2] |
| --- | --- | --- | --- |
| O=C(O)CNC(=O)c1cccc(C(F)(F)F)c1 | -9.78% | 0.103 µM [falling, full curve, poor fit] | – |
| CC(C)(C)C(=O)N1CCN(CCN2C(=O)c3cccc4cccc(c34)C2=O)CC1 | -11.3% | – | – |
| O=C(OCc1c(Cl)cccc1Cl)c1cnccn1 | 8.75% | 32.6 µM [falling, single point] | – |
| Cc1cc(NC(=O)c2cccs2)n(-c2ccccc2)n1 | 11% | 16.4 µM [falling, partial curve] | – |
| N#CC(C#N)=C1NC2(CCCC2)Cc2ccccc21 | 23.2% | 0.731 µM [rising, full curve, poor fit] | – |
| COc1ccc(NC(=O)Cc2coc3ccc4ccccc4c23)cc1S(=O)(=O)N1CCOCC1 | 17.5% | 2.31 µM [rising, single point] | – |
| CC1CCN(C(=O)c2ccc(NC3=C(Cl)C(=O)N(Cc4ccccc4)C3=O)cc2)CC1 | -46.3% | 5.17 µM [falling, full curve] | 10.3 µM [falling, partial curve, poor fit] |
| N#Cc1ccc(CSc2nnc(Nc3ccccc3)s2)cc1 | 2.44% | 13 µM [rising, single point] | 1.84 µM [rising, partial curve, poor fit] |
| Cc1ccc(-n2nc3c(=O)n(CC(=O)NCc4ccccn4)nc(C)c3c2C)cc1 | 12.5% | 16.4 µM [rising, partial curve] | – |
| CC(C)CC(=O)Nc1nc(-c2ccc(S(=O)(=O)N3CCOCC3)cc2)cs1 | -42.8% | 20.6 µM [falling, single point] | 23.1 µM [falling, partial curve] |
| O=C(Cc1ccc([N+](=O)[O-])cc1)N/N=C/c1ccccc1F | -11.3% | 29.1 µM [falling, single point] | – |
| CCc1nnc(NC(=O)c2nc(Cl)ccc2Cl)s1 | -0.283% | 29.1 µM [rising, single point] | – |
| Cc1ccc(/C=C2\SC(=S)N(CCCC(=O)Nc3cc(C)on3)C2=O)cc1 | -14.9% | 29.1 µM [falling, single point] | – |
| Cn1c(=O)c2nc(Cl)c(-c3ccccc3)nc2n(C)c1=O | 47.7% | 6.51 µM [falling, single point] | 29.1 µM [rising, single point] |
| Cc1cnc(C(=O)OCc2ccc(Br)cc2)cn1 | 15.7% | 6.51 µM [falling, single point] | – |
| Cn1c(O)c(N=NC(=S)Nc2ccccc2F)c2cc(S(=O)(=O)N3CCOCC3)ccc21 | -18.8% | 29.1 µM [falling, single point] | – |
| Cc1ccc(NC(=O)NC2CCCN2S(=O)(=O)c2ccc(Cl)cc2)cc1 (stereo not given) | 14.7% | 6.51 µM [rising, single point] | – |
| CC(C)(C)NC(=O)NC(=O)COC(=O)COc1ccc(Cl)cc1Cl | -5.86% | 0.146 µM [falling, full curve, poor fit] | – |
| Cc1ccccc1OC(C)C(=O)NCCC1=CCCCC1 (stereo not given) | -3.52% | 23.1 µM [falling, single point] | 0.461 µM [rising, partial curve, poor fit] |
| O=C(COC(=O)/C=C/c1cccc(F)c1)NC1CCCC1 | -6.39% | – | – |
| Cc1nnc(NC(=O)c2ccc(S(=O)(=O)N(C)Cc3ccccc3)cc2)o1 | -7.62% | 0.103 µM [falling, full curve, poor fit] | – |

Looked up above.
Entry of `O=C(O)CNC(=O)c1cccc(C(F)(F)F)c1` under AC50 [1]: 0.103 µM [falling, full curve, poor fit]
Entry of `CC(C)(C)C(=O)N1CCN(CCN2C(=O)c3cccc4cccc(c34)C2=O)CC1` under cell number change: -11.3%

Next part

| SMILES | cell number change | AC50 [1] | AC50 [2] |
| --- | --- | --- | --- |
| CCOC(=O)c1oc2ccccc2c1NC(=O)c1ccc(S(=O)(=O)N2CCCC2)cc1 | 4.39% | – | – |
| CCOc1ccccc1NC(=S)Nn1cnnc1 | 2.35% | – | – |
| Cc1cc(C)nc(N/N=C/c2ccccc2OCc2ccc([N+](=O)[O-])cc2)n1 | 42% | 14.6 µM [rising, partial curve] | 8.2 µM [rising, partial curve] |
| Cc1cc2cc(CN(C(=O)C3CC3)C3CCCC3)c3nnnn3c2cc1C | -3.25% | 0.82 µM [falling, partial curve, poor fit] | 0.82 µM [falling, single point] |
| O=C1C=C(c2cccc(CO)c2)C[C@@H](c2ccc(Cl)cc2)C1 | -12.4% | 1.16 µM [falling, single point] | – |
| Cc1cc(SCC(=O)NC(=O)NCc2ccco2)nc2c(C)cccc12 | 8.55% | 0.0461 µM [rising, partial curve, poor fit] | 0.13 µM [rising, full curve, poor fit] |
| Cc1ccc(CNC(=O)CCCC(=O)Nc2cc(C)on2)cc1 | -18.7% | 6.51 µM [falling, partial curve] | – |
| CN(C(=S)NC(=O)/C=C/c1ccc(F)cc1)C1CCCCC1 | 4% | – | – |
| COc1ccc(CCNc2ncnc3sccc23)cc1OC | -26.7% | 7.31 µM [falling, partial curve] | – |
| O=C(NCc1cccnc1)C(=O)Nc1ccc2c(c1)OCO2 | 32.7% | 0.0461 µM [rising, full curve] | 0.0184 µM [rising, full curve, poor fit] |
| COc1ccccc1-c1nnc(NC(=O)Cc2ccccc2)o1 | 15.8% | – | – |
| CC(=O)Oc1ccc2c(C)cc(=O)oc2c1C(=O)c1ccccc1 | 110% | 6.51 µM [falling, single point] | 6.51 µM [falling, single point] |
| Oc1c(Br)cc(Br)cc1C=Nc1ccc2c(c1)OCO2 | 5.97% | 29.1 µM [rising, single point] | – |
| c1ccc(-c2ccc(OCCOCCn3cncn3)cc2)cc1 | – | 1.16 µM [rising, full curve] | 0.82 µM [rising, full curve] |
| CCCCC1=NN2CCS(=O)(=O)N=C2S1 | 19.2% | – | – |
| COc1ccc(/C=C2\N=C(c3ccc(C)cc3)OC2=O)cc1 | 28.1% | 29.1 µM [rising, single point] | – |
| CCN1C(=NCCc2c[nH]c3ccccc23)N[C@@H](c2ccccc2)[C@H](C(=O)OC)[C@H]1C | 5.99% and 9.7% | 0.00461 µM [rising, full curve, poor fit] | – |
| COc1ccc(C2CC(c3ccccc3)=NN2C(=O)c2ccc(Cl)c([N+](=O)[O-])c2)cc1 (stereo not given) | 35.3% | 18.4 µM [rising, single point] | 23.1 µM [rising, single point] |
| Cc1ccc(C(CC(=O)NCCCN(C)C)c2ccc(OC(C)C)cc2)cc1 (stereo not given) | 11.8% | 2.06 µM [rising, partial curve] | – |
| Cc1noc(C)c1S(=O)(=O)N1CCC(C(=O)NC2CCN(Cc3ccccc3)CC2)CC1 | 13.4% | – | – |
| O=C(CSCc1cccc(Br)c1)NC1CC1 | 121% | – | 29.1 µM [rising, partial curve, poor fit] |

Reference: PubChem BioAssay AID2685 (National Center for Advancing Translational Sciences (NCATS), 2010)
